Some results were stated once for a whole list of compounds, not compound by compound.
Legend:
histamine H3 receptors = target: T1, histamine H3 receptors (Homo sapiens, UniProt Q9Y5N1); assay: Histamine H3 functional antagonist assay ([35S]-GTPγS SPA on membranes from H3 cells); format: biochemical; conditions: hydrochloride salts tested; H3 functional antagonist assay using membrane prepared from cultured H3 cells; averages of a number of experiments
T1 construct: expressed in transfected cells; host or cells: CHO K1 cells carrying pSwitch, transfected with pGeneH3, induced with mifepristone; clone 3H3; membrane preparation
Source text: A membrane preparation containing histamine H3 receptors may be prepared in accordance with the following procedures:
(i) Generation of Histamine H3 Cell Line
DNA encoding the human histamine H3 gene (Huvar, A. et al. (1999) Mol. Pharmacol. 55(6), 1101-1107) was cloned into a holding vector, pCDNA3.1 TOPO (InVitrogen) and its cDNA was isolated from this vector by restriction digestion of plasmid DNA with the enzymes BamHI and Not-1 and ligated into the inducible expression vector pGene (InVitrogen) digested with the same enzymes. The GeneSwitch™ system (a system where in transgene expression is switched off in the absence of an inducer and switched on in the presence of an inducer) was performed as described in U.S. Pat. Nos. 5,364,791; 5,874,534; and 5,935,934. Ligated DNA was transformed into competent DH5α E. coli host bacterial cells and plated onto Luria Broth (LB) agar containing Zeocin™ (an antibiotic which allows the selection of cells expressing the sh ble gene which is present on pGene and pSwitch) at 50 μg ml^−1. Colonies containing the re-ligated plasmid were identified by restriction analysis. DNA for transfection into mammalian cells was prepared from 250 ml cultures of the host bacterium containing the pGeneH3 plasmid and isolated using a DNA preparation kit (Qiagen Midi-Prep) as per manufacturers guidelines (Qiagen).
CHO K1 cells previously transfected with the pSwitch regulatory plasmid (InVitrogen) were seeded at 2×10e6 cells per T75 flask in Complete Medium, containing Hams F12 (GIBCOBRL, Life Technologies) medium supplemented with 10% v/v dialysed foetal bovine serum, L-glutamine, and hygromycin (100 μg ml^−1), 24 hours prior to use. Plasmid DNA was transfected into the cells using Lipofectamine plus according to the manufacturers guidelines (InVitrogen). 48 hours post transfection cells were placed into complete medium supplemented with 500 μg ml^−1 Zeocin™.
10-14 days post selection 10 nM Mifepristone (InVitrogen), was added to the culture medium to induce the expression of the receptor. 18 hours post induction cells were detached from the flask using ethylenediamine tetra-acetic acid (EDTA; 1:5000; InVitrogen), following several washes with phosphate buffered saline pH 7.4 and resuspended in Sorting Medium containing Minimum Essential Medium (MEM), without phenol red, and supplemented with Earles salts and 3% Foetal Clone II (Hyclone). Approximately 1×10e7 cells were examined for receptor expression by staining with a rabbit polyclonal antibody, 4a, raised against the N-terminal domain of the histamine H3 receptor, incubated on ice for 60 minutes, followed by two washes in sorting medium. Receptor bound antibody was detected by incubation of the cells for 60 minutes on ice with a goat anti rabbit antibody, conjugated with Alexa 488 fluorescence marker (Molecular Probes). Following two further washes with Sorting Medium, cells were filtered through a 50 μm Filcon™ (BD Biosciences) and then analysed on a FACS Vantage SE Flow Cytometer fitted with an Automatic Cell Deposition Unit. Control cells were non-induced cells treated in a similar manner. Positively stained cells were sorted as single cells into 96-well plates, containing Complete Medium containing 500 μg ml^−1 Zeocin™ and allowed to expand before reanalysis for receptor expression via antibody and ligand binding studies. One clone, 3H3, was selected for membrane preparation.
(ii) Membrane Preparation from Cultured Cells
All steps of the protocol are carried out at 4° C. and with pre-cooled reagents. The cell pellet is resuspended in 10 volumes of homogenisation buffer (50 mM N-2-hydroxyethylpiperazine-N′-2-ethanesulfonic acid (HEPES), 1 mM ethylenediamine tetra-acetic acid (EDTA), pH 7.4 with KOH, supplemented with 10e-6M leupeptin (acetyl-leucyl-leucyl-arginal; Sigma L2884), 25 μg/ml bacitracin (Sigma B0125), 1 mM phenylmethylsulfonyl fluoride (PMSF) and 2×10e-6M pepstain A (Sigma)). […]

Amino acid sequences for entries named in this document (tags omitted). A change or cut given only in a name is not applied to a line headed by its entry.
UniProt Q9Y5N1: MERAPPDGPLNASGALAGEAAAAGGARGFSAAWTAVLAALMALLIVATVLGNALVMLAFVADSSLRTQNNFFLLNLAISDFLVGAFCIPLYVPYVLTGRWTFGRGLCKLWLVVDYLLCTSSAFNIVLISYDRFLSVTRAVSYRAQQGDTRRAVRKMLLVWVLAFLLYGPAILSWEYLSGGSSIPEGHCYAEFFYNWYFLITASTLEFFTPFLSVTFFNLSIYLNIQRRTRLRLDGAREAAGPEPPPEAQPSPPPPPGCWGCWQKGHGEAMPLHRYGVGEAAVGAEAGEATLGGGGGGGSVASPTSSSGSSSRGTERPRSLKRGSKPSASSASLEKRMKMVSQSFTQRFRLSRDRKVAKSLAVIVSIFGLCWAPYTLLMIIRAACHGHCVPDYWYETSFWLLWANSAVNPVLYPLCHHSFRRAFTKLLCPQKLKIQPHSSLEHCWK
UniProt P35367, whole entry: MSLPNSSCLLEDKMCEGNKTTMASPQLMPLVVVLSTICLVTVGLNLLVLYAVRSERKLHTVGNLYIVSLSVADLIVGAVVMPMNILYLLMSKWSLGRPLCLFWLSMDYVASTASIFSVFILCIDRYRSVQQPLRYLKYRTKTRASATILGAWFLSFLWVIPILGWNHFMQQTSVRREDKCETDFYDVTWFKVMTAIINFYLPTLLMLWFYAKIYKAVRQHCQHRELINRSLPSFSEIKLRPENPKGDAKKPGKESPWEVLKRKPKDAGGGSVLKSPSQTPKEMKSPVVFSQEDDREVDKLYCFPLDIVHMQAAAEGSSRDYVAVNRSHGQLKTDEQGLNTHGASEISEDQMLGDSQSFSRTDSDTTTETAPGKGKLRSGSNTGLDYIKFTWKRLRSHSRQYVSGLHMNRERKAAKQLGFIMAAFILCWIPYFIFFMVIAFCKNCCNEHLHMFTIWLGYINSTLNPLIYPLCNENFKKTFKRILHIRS

human H1 receptor = target: T2, human H1 receptor (Homo sapiens, UniProt P35367); assay: Histamine H1 functional antagonist assay (FLIPR, histamine induced increase in fluorescence); format: cell-based; conditions: hydrochloride salts tested, Cheng-Prusoff equation, averages of a number of experiments
T2 construct: expressed in transfected cells

Row | SMILES | functional pKi (fpKi) (histamine H3 receptors) | functional pKi (fpKi) (human H1 receptor)
1 | CN1CCN(c2ccc(-c3nc4c(s3)CCN(CC3CC3)CC4)cc2)C1=O [Example E31, 1-{4-[6-(Cyclopropylmethyl)-5,6,7,8-tetrahydro-4H-[1,3]thiazolo[4,5-d]azepin-2-yl]phenyl}-3-methyl-2-imidazolidinone] | > 7.5 | < 5.6
2 | CNC(=O)c1ccc(-c2nc3c(s2)CCN(C2CCC2)CC3)cc1 [Example E43, 4-(6-Cyclobutyl-5,6,7,8-tetrahydro-4H-[1,3]thiazolo[4,5-d]azepin-2-yl)-N-methylbenzamide] | > 7.5 | < 5.6
3 | O=C1OCCN1c1ccc(-c2nc3c(s2)CCN(C2CCC2)CC3)cc1 [Example E44, 3-[4-(6-Cyclobutyl-5,6,7,8-tetrahydro-4H-[1,3]thiazolo[4,5-d]azepin-2-yl)phenyl]-1,3-oxazolidin-2-one] | > 7.5 | < 5.6
4 | O=C(c1ccc(-c2nc3c(s2)CCN(C2CCC2)CC3)cc1)N1CCCC1 [Example E45, 6-Cyclobutyl-2-[4-(1-pyrrolidinylcarbonyl)phenyl]-5,6,7,8-tetrahydro-4H-[1,3]thiazolo[4,5-d]azepine] | > 7.5 | < 5.6
5 | NC(=O)c1ccc(-c2nc3c(s2)CCN(C2CCC2)CC3)cc1 [Example E46, 4-(6-Cyclobutyl-5,6,7,8-tetrahydro-4H-[1,3]thiazolo[4,5-d]azepin-2-yl)benzamide] | > 7.5 | < 5.6
6 | CCNC(=O)c1ccc(-c2nc3c(s2)CCN(C2CCC2)CC3)cc1 [Example E47, 4-(6-Cyclobutyl-5,6,7,8-tetrahydro-4H-[1,3]thiazolo[4,5-d]azepin-2-yl)-N-ethylbenzamide] | > 7.5 | < 5.6
7 | N#Cc1ccc(-c2nc3c(s2)CCN(C2CCC2)CC3)cc1 [Example E48, 4-(6-Cyclobutyl-5,6,7,8-tetrahydro-4H-[1,3]thiazolo[4,5-d]azepin-2-yl)benzonitrile] | > 7.5 | < 5.6
8 | O=C1CCCN1c1ccc(-c2nc3c(s2)CCN(C2CCC2)CC3)cn1 [Example E52, 1-[5-(6-Cyclobutyl-5,6,7,8-tetrahydro-4H-[1,3]thiazolo[4,5-d]azepin-2-yl)-2-pyridinyl]-2-pyrrolidinone] | > 7.5 | < 5.6
9 | N#Cc1ncc(-c2nc3c(s2)CCN(C2CCC2)CC3)cn1 [Example E56, 5-(6-Cyclobutyl-5,6,7,8-tetrahydro-4H-[1,3]thiazolo[4,5-d]azepin-2-yl)-2-pyrimidinecarbonitrile] | > 7.5 | < 5.6
10 | COc1ncc(-c2nc3c(s2)CCN(C2CCC2)CC3)cn1 [Example E57, 6-cyclobutyl-2-[2-(methyloxy)-5-pyrimidinyl]-5,6,7,8-tetrahydro-4H-[1,3]thiazolo[4,5-d]azepine] | > 7.5 | < 5.6
11 | CN1CCN(c2ccc(-c3nc4c(s3)CCN(CC3CCCCC3)CC4)cc2)C1=O [Example E62, 1-{4-[6-(Cyclohexylmethyl)-5,6,7,8-tetrahydro-4H-[1,3]thiazolo[4,5-d]azepin-2-yl]phenyl}-3-methyl-2-imidazolidinone] | > 7.5 | < 5.6
12 | CCN1CCc2nc(-c3ccc(N4CCN(C)C4=O)cc3)sc2CC1 [Example E63, 1-[4-(6-Ethyl-5,6,7,8-tetrahydro-4H-[1,3]thiazolo[4,5-d]azepin-2-yl)phenyl]-3-methyl-2-imidazolidinone] | > 7.5 | < 5.6
13 | Cc1ccc(C(=O)N2CCC(c3nc4c(s3)CCN(C3CCC3)CC4)CC2)nn1 [Example E64, 6-Cyclobutyl-2-{1-[(6-methyl-3-pyridazinyl)carbonyl]-4-piperidinyl}-5,6,7,8-tetrahydro-4H-[1,3]thiazolo[4,5-d]azepine] | > 7.5 | < 5.6
14 | Cc1ccc(C(=O)N2CCC(c3nc4c(s3)CCN(C3CCC3)CC4)C2)cn1 (stereo not shown) [Example E65, 6-Cyclobutyl-2-{1-[(6-methyl-3-pyridinyl)carbonyl]-3-pyrrolidinyl}-5,6,7,8-tetrahydro-4H-[1,3]thiazolo[4,5-d]azepine] | > 7.5 | < 5.6
15 | N#Cc1cncc(N2CCC(c3nc4c(s3)CCN(C3CCC3)CC4)CC2)c1 [Example E66, 5-[4-(6-Cyclobutyl-5,6,7,8-tetrahydro-4H-[1,3]thiazolo[4,5-d]azepin-2-yl)-1-piperidinyl]-3-pyridinecarbonitrile] | > 7.5 | < 5.6
16 | N#Cc1ccc(N2CCC(c3nc4c(s3)CCN(C3CCC3)CC4)CC2)cc1 [Example E67, 4-[4-(6-Cyclobutyl-5,6,7,8-tetrahydro-4H-[1,3]thiazolo[4,5-d]azepin-2-yl)-1-piperidinyl]benzonitrile] | > 7.5 | < 5.6
17 | CNC(=O)N1CCC(c2nc3c(s2)CCN(C2CCC2)CC3)CC1 [Example E68, 4-(6-Cyclobutyl-5,6,7,8-tetrahydro-4H-[1,3]thiazolo[4,5-d]azepin-2-yl)-N-methyl-1-piperidinecarboxamide] | > 7.5 | < 5.6
18 | CC(C)NC(=O)N1CCC(c2nc3c(s2)CCN(C2CCC2)CC3)CC1 [Example E69, 4-(6-Cyclobutyl-5,6,7,8-tetrahydro-4H-[1,3]thiazolo[4,5-d]azepin-2-yl)-N-(1-methylethyl)-1-piperidinecarboxamide] | > 7.5 | < 5.6
19 | Cc1ccccc1NC(=O)N1CCC(c2nc3c(s2)CCN(C2CCC2)CC3)CC1 [Example E70, 4-(6-Cyclobutyl-5,6,7,8-tetrahydro-4H-[1,3]thiazolo[4,5-d]azepin-2-yl)-N-(2-methylphenyl)-1-piperidinecarboxamide] | > 7.5 | < 5.6
20 | Cc1cccc(NC(=O)N2CCC(c3nc4c(s3)CCN(C3CCC3)CC4)CC2)c1 [Example E71, 4-(6-Cyclobutyl-5,6,7,8-tetrahydro-4H-[1,3]thiazolo[4,5-d]azepin-2-yl)-N-(3-methylphenyl)-1-piperidinecarboxamide] | > 7.5 | < 5.6
21 | Cc1ccc(NC(=O)N2CCC(c3nc4c(s3)CCN(C3CCC3)CC4)CC2)cc1 [Example E72, 4-(6-Cyclobutyl-5,6,7,8-tetrahydro-4H-[1,3]thiazolo[4,5-d]azepin-2-yl)-N-(4-methylphenyl)-1-piperidinecarboxamide] | > 7.5 | < 5.6
22 | N#Cc1ccc(-c2nc3c(s2)CCN(C2CCC2)CC3)nc1 [Example E73, 6-(6-Cyclobutyl-5,6,7,8-tetrahydro-4H-[1,3]thiazolo[4,5-d]azepin-2-yl)-3-pyridinecarbonitrile] | > 7.5 | < 5.6
23 | CNC(=O)c1ccc(N2CCC(c3nc4c(s3)CCN(C3CCC3)CC4)CC2)cn1 [Example E77, 5-[4-(6-Cyclobutyl-5,6,7,8-tetrahydro-4H-[1,3]thiazolo[4,5-d]azepin-2-yl)-1-piperidinyl]-N-methyl-2-pyridinecarboxamide] | > 7.5 | < 5.6
